Laboratory results as given in the supplement of paper PMC7661543.
The effect of the compound repeats well; differences between the knockouts mostly do not.

Test system: SKBR3
Test: relative cell number vs DMSO control (72 h) (% of DMSO); higher = less growth inhibition (more cells)
Experimental: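 QMAP-Seq: a pool of 5 breast cancer cell lines (ZR-75-1, SKBR3, HCC-38, MDA-MB-231, BT-20), each carrying 12 doxycycline-inducible Cas9 sgRNA perturbations (11 knockouts plus non-targeting sgNT), was treated with compounds for 72 h at four 10-fold doses (10 nM-10 uM or 1 nM-1 uM range). Barcodes were amplified and sequenced, and cell number was interpolated from 293T spike-in standard curves. The result is expressed as % of the median of DMSO wells. Two biological replicates.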

C[C@@H]1CN(CC(=O)Nc2ccc3c(c2)Cc2cccc(-c4cc(=O)cc(N5CCOCC5)o4)c2S3)C[C@H](C)O1
Conditions | relative cell number
sgRNA knockout: sgATF3, 10 nM | 100
sgRNA knockout: sgATF3, 100 nM | 78
sgRNA knockout: sgATF3, 1000 nM | 75.5
sgRNA knockout: sgATF3, 10000 nM | 31.9
sgRNA knockout: sgATF4, 10 nM | 80.7
sgRNA knockout: sgATF4, 100 nM | 97.68
sgRNA knockout: sgATF4, 1000 nM | 74
sgRNA knockout: sgATF4, 10000 nM | 41.7
sgRNA knockout: sgATF6, 10 nM | 79
sgRNA knockout: sgATF6, 100 nM | 111
sgRNA knockout: sgATF6, 1000 nM | 79.8
sgRNA knockout: sgATF6, 10000 nM | 28.3
sgRNA knockout: sgATG7, 10 nM | 86.1
sgRNA knockout: sgATG7, 100 nM | 106
sgRNA knockout: sgATG7, 1000 nM | 80.5
sgRNA knockout: sgATG7, 10000 nM | 43
sgRNA knockout: sgERN1, 10 nM | 102
sgRNA knockout: sgERN1, 100 nM | 84.4
sgRNA knockout: sgERN1, 1000 nM | 85
sgRNA knockout: sgERN1, 10000 nM | 24.6
sgRNA knockout: sgHSF1, 10 nM | 87.31
sgRNA knockout: sgHSF1, 100 nM | 77.3
sgRNA knockout: sgHSF1, 1000 nM | 78.9
sgRNA knockout: sgHSF1, 10000 nM | 30.3
sgRNA knockout: sgHSF2, 10 nM | 79.5
sgRNA knockout: sgHSF2, 100 nM | 70.7
sgRNA knockout: sgHSF2, 1000 nM | 84.7
sgRNA knockout: sgHSF2, 10000 nM | 36.6
sgRNA knockout: sgKEAP1, 10 nM | 80.1
sgRNA knockout: sgKEAP1, 100 nM | 90.6
sgRNA knockout: sgKEAP1, 1000 nM | 75
sgRNA knockout: sgKEAP1, 10000 nM | 36.5
sgRNA knockout: sgNFE2L2, 10 nM | 101
sgRNA knockout: sgNFE2L2, 100 nM | 99.7
sgRNA knockout: sgNFE2L2, 1000 nM | 77.4
sgRNA knockout: sgNFE2L2, 10000 nM | 25
sgRNA knockout: sgSLC35F2, 10 nM | 84.9
sgRNA knockout: sgSLC35F2, 100 nM | 70.6
sgRNA knockout: sgSLC35F2, 1000 nM | 81.9
sgRNA knockout: sgSLC35F2, 10000 nM | 41
sgRNA knockout: sgXBP1, 10 nM | 83.5
sgRNA knockout: sgXBP1, 100 nM | 80.3
sgRNA knockout: sgXBP1, 1000 nM | 80.2
sgRNA knockout: sgXBP1, 10000 nM | 38.3

CC(C)[C@H](O)C(=O)N[C@@H](C)C(=O)N[C@@H]1C(=O)N(C)CCc2ccccc21 [Semagacestat]
Conditions | relative cell number
sgRNA knockout: sgATF3, 10 nM | 95.6
sgRNA knockout: sgATF3, 100 nM | 113
sgRNA knockout: sgATF3, 1000 nM | 75.3
sgRNA knockout: sgATF3, 10000 nM | 102
sgRNA knockout: sgATF4, 10 nM | 104
sgRNA knockout: sgATF4, 100 nM | 104
sgRNA knockout: sgATF4, 1000 nM | 104
sgRNA knockout: sgATF4, 10000 nM | 77.5
sgRNA knockout: sgATF6, 10 nM | 91.2
sgRNA knockout: sgATF6, 100 nM | 96.9
sgRNA knockout: sgATF6, 1000 nM | 108
sgRNA knockout: sgATF6, 10000 nM | 79.1
sgRNA knockout: sgATG7, 10 nM | 99.3
sgRNA knockout: sgATG7, 100 nM | 88.3
sgRNA knockout: sgATG7, 1000 nM | 77
sgRNA knockout: sgATG7, 10000 nM | 83.3
sgRNA knockout: sgERN1, 10 nM | 87.3
sgRNA knockout: sgERN1, 100 nM | 106
sgRNA knockout: sgERN1, 1000 nM | 116
sgRNA knockout: sgERN1, 10000 nM | 88.4
sgRNA knockout: sgHSF1, 10 nM | 107
sgRNA knockout: sgHSF1, 100 nM | 109
sgRNA knockout: sgHSF1, 1000 nM | 85
sgRNA knockout: sgHSF1, 10000 nM | 78.9
sgRNA knockout: sgHSF2, 10 nM | 85.6
sgRNA knockout: sgHSF2, 100 nM | 89.5
sgRNA knockout: sgHSF2, 1000 nM | 91.4
sgRNA knockout: sgHSF2, 10000 nM | 73.9
sgRNA knockout: sgKEAP1, 10 nM | 84.27
sgRNA knockout: sgKEAP1, 100 nM | 120
sgRNA knockout: sgKEAP1, 1000 nM | 95.9
sgRNA knockout: sgKEAP1, 10000 nM | 95.5
sgRNA knockout: sgNFE2L2, 10 nM | 93.6
sgRNA knockout: sgNFE2L2, 100 nM | 96.1
sgRNA knockout: sgNFE2L2, 1000 nM | 96.7
sgRNA knockout: sgNFE2L2, 10000 nM | 77.7
sgRNA knockout: sgSLC35F2, 10 nM | 101
sgRNA knockout: sgSLC35F2, 100 nM | 88.5
sgRNA knockout: sgSLC35F2, 1000 nM | 81.3
sgRNA knockout: sgSLC35F2, 10000 nM | 83.79
sgRNA knockout: sgXBP1, 10 nM | 127
sgRNA knockout: sgXBP1, 100 nM | 96.5
sgRNA knockout: sgXBP1, 1000 nM | 90.9
sgRNA knockout: sgXBP1, 10000 nM | 91.6

CC(C)(C)c1nc(-c2cccc(NS(=O)(=O)c3c(F)cccc3F)c2F)c(-c2ccnc(N)n2)s1 [Dabrafenib]
Conditions | relative cell number
sgRNA knockout: sgATF3, 10 nM | 133
sgRNA knockout: sgATF3, 100 nM | 103
sgRNA knockout: sgATF3, 1000 nM | 94.3
sgRNA knockout: sgATF3, 10000 nM | 114
sgRNA knockout: sgATF4, 10 nM | 131
sgRNA knockout: sgATF4, 100 nM | 102
sgRNA knockout: sgATF4, 1000 nM | 85.1
sgRNA knockout: sgATF4, 10000 nM | 114
sgRNA knockout: sgATF6, 10 nM | 125
sgRNA knockout: sgATF6, 100 nM | 120
sgRNA knockout: sgATF6, 1000 nM | 84.9
sgRNA knockout: sgATF6, 10000 nM | 97.2
sgRNA knockout: sgATG7, 10 nM | 150
sgRNA knockout: sgATG7, 100 nM | 125
sgRNA knockout: sgATG7, 1000 nM | 80.5
sgRNA knockout: sgATG7, 10000 nM | 132
sgRNA knockout: sgERN1, 10 nM | 181
sgRNA knockout: sgERN1, 100 nM | 114
sgRNA knockout: sgERN1, 1000 nM | 94.1
sgRNA knockout: sgERN1, 10000 nM | 95.8
sgRNA knockout: sgHSF1, 10 nM | 133
sgRNA knockout: sgHSF1, 100 nM | 104
sgRNA knockout: sgHSF1, 1000 nM | 89.3
sgRNA knockout: sgHSF1, 10000 nM | 91.1
sgRNA knockout: sgHSF2, 10 nM | 137
sgRNA knockout: sgHSF2, 100 nM | 107
sgRNA knockout: sgHSF2, 1000 nM | 91
sgRNA knockout: sgHSF2, 10000 nM | 102
sgRNA knockout: sgKEAP1, 10 nM | 114
sgRNA knockout: sgKEAP1, 100 nM | 110
sgRNA knockout: sgKEAP1, 1000 nM | 69.5
sgRNA knockout: sgKEAP1, 10000 nM | 105
sgRNA knockout: sgNFE2L2, 10 nM | 152
sgRNA knockout: sgNFE2L2, 100 nM | 114
sgRNA knockout: sgNFE2L2, 1000 nM | 71.4
sgRNA knockout: sgNFE2L2, 10000 nM | 122
sgRNA knockout: sgSLC35F2, 10 nM | 123
sgRNA knockout: sgSLC35F2, 100 nM | 114
sgRNA knockout: sgSLC35F2, 1000 nM | 87.8
sgRNA knockout: sgSLC35F2, 10000 nM | 85.9
sgRNA knockout: sgXBP1, 10 nM | 156
sgRNA knockout: sgXBP1, 100 nM | 111
sgRNA knockout: sgXBP1, 1000 nM | 84
sgRNA knockout: sgXBP1, 10000 nM | 108
